These results are taken from the supplement of paper PMC12067093, “Discovery and optimisation of a covalent ligand for TRIM25 and its application to targeted protein ubiquitination” (Chemical Science, 2025).

Chains of the proteins cited; added tags and fusions are not shown. Lines headed by an entry give the natural chain unless they say otherwise; changes in a name come on top.
UniProt Q99590: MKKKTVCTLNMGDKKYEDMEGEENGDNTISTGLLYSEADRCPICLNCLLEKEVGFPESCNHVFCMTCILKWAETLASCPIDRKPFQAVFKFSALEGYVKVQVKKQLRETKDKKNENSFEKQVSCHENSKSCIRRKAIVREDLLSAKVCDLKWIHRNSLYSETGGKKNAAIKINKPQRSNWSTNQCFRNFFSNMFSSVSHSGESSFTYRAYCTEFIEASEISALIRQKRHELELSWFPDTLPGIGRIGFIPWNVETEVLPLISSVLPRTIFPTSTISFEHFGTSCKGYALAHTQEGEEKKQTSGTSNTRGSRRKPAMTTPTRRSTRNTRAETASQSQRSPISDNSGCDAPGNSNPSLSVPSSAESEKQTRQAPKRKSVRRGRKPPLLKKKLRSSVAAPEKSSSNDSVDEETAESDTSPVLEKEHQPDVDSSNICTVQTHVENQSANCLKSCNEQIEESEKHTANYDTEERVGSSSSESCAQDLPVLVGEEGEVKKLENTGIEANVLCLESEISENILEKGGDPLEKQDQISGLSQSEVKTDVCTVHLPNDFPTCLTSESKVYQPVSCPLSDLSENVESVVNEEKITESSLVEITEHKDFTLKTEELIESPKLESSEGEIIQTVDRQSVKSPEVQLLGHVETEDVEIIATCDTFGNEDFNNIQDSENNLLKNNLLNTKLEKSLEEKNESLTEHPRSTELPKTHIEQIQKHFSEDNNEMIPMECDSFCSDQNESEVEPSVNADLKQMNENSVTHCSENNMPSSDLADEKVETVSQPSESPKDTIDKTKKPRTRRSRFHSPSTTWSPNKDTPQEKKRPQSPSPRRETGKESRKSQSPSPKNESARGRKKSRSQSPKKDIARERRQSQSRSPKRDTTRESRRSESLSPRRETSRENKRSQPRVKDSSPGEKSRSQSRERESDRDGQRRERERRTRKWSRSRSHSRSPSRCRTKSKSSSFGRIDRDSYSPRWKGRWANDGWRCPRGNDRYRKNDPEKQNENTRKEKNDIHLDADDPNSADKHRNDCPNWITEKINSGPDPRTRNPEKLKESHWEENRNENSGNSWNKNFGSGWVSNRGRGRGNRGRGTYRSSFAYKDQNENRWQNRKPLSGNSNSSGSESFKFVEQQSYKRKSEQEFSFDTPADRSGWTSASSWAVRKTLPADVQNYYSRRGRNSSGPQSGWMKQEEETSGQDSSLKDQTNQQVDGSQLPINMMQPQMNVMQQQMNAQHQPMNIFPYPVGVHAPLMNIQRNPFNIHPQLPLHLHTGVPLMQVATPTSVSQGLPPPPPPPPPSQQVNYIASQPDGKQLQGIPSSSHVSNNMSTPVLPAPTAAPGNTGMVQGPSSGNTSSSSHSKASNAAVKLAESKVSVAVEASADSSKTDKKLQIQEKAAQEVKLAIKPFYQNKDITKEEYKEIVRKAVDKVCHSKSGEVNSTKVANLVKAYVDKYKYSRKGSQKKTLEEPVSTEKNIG
UniProt Q9Y3Z3: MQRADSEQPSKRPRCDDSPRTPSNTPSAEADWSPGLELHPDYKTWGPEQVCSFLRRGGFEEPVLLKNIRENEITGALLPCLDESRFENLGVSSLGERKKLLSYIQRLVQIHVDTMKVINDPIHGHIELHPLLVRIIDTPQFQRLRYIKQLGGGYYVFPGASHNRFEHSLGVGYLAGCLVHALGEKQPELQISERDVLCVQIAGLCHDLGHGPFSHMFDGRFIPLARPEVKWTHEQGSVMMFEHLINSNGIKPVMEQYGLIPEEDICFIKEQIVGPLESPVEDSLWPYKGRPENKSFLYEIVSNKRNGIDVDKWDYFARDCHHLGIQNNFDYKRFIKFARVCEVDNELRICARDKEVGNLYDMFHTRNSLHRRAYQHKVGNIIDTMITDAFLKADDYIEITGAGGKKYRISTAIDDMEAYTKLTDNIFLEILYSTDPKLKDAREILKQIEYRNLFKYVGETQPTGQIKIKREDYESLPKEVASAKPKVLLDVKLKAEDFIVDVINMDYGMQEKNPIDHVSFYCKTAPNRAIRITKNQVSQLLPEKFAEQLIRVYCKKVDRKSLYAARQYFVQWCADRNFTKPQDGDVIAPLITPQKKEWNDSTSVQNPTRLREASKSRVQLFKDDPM
UniProt P61619, whole entry, looked up: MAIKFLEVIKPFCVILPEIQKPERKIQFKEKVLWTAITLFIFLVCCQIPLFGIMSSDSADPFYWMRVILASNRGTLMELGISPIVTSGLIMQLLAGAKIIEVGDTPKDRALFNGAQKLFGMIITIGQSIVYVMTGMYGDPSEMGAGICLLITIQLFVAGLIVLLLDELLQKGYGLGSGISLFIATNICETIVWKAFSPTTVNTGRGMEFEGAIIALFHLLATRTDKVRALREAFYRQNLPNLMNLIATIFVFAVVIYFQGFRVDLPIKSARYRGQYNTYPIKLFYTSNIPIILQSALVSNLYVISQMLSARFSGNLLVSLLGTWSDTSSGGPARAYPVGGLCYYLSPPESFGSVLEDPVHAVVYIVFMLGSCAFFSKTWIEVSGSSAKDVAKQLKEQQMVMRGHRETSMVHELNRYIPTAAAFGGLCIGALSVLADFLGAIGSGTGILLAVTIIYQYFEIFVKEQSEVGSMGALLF
UniProt O94855: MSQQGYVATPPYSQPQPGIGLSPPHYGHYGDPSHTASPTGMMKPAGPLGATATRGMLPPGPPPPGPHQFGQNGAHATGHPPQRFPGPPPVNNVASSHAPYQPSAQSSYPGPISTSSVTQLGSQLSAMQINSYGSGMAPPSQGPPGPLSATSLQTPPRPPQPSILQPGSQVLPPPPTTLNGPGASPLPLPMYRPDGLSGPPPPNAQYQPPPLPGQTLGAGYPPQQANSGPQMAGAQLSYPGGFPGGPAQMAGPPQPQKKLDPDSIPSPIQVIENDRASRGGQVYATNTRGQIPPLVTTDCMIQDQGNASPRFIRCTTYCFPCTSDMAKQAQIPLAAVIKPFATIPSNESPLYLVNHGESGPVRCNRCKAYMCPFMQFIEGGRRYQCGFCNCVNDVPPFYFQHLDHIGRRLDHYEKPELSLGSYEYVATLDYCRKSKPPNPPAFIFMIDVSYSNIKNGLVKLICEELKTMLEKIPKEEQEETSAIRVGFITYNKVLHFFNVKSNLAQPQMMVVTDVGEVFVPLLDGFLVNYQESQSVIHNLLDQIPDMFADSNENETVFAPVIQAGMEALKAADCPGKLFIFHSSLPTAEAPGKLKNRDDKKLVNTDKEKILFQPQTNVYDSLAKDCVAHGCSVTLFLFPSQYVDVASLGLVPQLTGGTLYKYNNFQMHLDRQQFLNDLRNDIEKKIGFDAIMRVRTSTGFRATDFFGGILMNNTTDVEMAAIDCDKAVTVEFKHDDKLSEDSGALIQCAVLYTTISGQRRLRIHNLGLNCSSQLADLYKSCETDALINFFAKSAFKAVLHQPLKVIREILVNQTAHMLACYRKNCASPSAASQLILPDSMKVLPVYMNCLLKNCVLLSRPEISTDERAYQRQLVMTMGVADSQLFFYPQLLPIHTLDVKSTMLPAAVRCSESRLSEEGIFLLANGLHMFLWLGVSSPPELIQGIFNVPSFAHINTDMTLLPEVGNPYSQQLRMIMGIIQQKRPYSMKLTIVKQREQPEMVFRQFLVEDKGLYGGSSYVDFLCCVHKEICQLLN
UniProt Q96GD3: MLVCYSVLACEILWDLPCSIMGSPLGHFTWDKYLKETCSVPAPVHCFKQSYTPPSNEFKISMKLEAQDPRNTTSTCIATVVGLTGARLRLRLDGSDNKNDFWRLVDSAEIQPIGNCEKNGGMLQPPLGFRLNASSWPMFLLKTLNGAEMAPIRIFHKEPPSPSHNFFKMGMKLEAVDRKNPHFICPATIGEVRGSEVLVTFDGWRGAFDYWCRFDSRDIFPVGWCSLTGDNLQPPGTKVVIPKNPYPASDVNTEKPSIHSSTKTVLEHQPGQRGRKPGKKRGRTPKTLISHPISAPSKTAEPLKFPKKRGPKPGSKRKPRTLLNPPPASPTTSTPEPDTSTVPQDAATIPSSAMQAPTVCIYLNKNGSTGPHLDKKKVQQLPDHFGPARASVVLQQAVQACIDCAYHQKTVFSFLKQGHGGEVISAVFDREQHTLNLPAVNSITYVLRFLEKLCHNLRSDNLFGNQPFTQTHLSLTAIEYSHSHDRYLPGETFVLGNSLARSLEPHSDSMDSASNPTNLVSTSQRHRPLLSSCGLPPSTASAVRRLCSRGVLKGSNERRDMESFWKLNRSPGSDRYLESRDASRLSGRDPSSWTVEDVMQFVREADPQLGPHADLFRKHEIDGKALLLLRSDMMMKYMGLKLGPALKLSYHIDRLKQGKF
UniProt Q9HCN8: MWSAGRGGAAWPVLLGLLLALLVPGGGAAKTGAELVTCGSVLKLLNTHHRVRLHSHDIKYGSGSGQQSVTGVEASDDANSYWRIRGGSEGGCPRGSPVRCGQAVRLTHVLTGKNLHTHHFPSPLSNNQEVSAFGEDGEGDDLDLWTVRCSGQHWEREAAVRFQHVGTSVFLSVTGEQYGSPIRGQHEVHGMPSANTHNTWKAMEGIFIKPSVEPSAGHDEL
UniProt Q15437: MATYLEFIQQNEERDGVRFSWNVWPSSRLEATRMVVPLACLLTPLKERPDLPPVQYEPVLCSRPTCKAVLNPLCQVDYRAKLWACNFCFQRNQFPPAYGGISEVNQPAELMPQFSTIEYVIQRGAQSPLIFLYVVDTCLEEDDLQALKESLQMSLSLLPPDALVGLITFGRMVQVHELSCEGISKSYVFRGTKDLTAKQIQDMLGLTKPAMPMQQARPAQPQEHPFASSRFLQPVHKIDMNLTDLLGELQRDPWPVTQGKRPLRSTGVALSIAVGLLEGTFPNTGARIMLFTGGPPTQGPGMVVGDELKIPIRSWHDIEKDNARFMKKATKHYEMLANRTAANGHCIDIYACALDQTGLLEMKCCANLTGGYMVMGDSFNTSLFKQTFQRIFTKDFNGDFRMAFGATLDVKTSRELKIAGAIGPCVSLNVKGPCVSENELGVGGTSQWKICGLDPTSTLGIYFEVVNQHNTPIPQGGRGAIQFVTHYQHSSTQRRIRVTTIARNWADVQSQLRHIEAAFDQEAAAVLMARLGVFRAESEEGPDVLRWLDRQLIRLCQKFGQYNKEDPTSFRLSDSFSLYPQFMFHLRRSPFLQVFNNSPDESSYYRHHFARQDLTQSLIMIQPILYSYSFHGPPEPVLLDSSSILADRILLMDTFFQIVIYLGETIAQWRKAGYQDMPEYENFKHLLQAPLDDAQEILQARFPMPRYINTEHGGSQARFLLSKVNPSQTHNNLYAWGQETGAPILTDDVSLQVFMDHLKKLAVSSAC
UniProt Q96KG9: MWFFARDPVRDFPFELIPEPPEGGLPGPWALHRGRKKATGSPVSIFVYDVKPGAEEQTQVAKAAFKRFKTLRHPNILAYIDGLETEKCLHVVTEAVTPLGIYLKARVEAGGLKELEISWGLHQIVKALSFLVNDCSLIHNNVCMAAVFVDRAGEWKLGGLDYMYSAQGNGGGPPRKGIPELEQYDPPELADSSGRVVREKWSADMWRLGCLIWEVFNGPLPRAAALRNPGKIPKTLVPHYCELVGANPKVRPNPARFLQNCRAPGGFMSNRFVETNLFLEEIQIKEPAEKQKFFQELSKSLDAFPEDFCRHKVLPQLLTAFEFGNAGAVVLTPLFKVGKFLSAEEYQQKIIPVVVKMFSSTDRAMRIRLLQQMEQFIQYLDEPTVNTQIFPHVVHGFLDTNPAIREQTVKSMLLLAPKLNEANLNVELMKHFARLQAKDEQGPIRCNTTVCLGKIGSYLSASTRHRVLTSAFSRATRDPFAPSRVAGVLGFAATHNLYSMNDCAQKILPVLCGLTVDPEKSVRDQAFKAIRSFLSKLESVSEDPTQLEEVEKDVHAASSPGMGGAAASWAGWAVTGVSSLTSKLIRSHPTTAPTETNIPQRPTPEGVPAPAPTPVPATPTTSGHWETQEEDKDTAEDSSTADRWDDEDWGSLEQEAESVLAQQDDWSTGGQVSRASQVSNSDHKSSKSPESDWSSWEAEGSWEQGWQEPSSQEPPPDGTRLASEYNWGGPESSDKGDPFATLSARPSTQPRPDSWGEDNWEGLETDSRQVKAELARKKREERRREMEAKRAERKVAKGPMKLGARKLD
UniProt Q9Y512: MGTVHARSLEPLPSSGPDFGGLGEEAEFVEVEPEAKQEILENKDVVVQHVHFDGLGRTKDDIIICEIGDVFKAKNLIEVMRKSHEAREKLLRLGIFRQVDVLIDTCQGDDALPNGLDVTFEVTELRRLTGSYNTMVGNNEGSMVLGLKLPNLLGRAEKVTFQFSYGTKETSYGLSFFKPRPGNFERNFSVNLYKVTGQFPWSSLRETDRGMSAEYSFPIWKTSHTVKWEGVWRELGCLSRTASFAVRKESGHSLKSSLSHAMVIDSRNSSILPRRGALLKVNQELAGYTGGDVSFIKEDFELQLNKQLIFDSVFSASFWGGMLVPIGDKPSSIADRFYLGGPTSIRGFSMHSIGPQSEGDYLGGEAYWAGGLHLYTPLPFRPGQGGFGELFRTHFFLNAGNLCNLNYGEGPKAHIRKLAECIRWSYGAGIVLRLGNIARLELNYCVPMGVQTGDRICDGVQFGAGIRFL

The other results are listed elsewhere or left out.

Compound in this test: CC1Cc2ccccc2N1C(=O)C1CCCN(C1)C(=O)CCl (mixture of isomers) [TRIM25 ligand 11 (diastereomer mixture)]
The experiment in a line: probe-labelled cysteine peptide fold change vs DMSO (competition) (log2 fold change); higher = less target engagement (more negative = stronger competition). The note with it: THP-1, incubation time: 4 h.
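Also: competitive chemoproteomic profiling in live THP-1 cells with an iodoacetamide desthiobiotin (IA-DTB) probe, comparing probe-labelled peptide intensities in compound-treated cells against DMSO-treated controls.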

For “SART3_Q15020_729_LRPLFEACGEVVQIRPIFSNR (UniProt Q15020)”, the “probe-labelled cysteine peptide fold change” value runs as follows: (10 µM) 0.0139; (50 µM) 0.0102.

As to “SCAF11_Q99590_506_KLENTGIEANVLCLESEISENILEK (UniProt Q99590)”, the “probe-labelled cysteine peptide fold change” value was -0.132 (10 µM) and -0.338 (50 µM).

Regarding “SAMHD1_Q9Y3Z3_51_TWGPEQVCSFLR (UniProt Q9Y3Z3)”, the “probe-labelled cysteine peptide fold change” value was found to be 0.0384 (10 µM) and 0.092 (50 µM).

Consider “SCAPER_Q9BY12_71_QSTAVDCK (UniProt Q9BY12)”, for which the “probe-labelled cysteine peptide fold change” value by setting is: (10 µM) -0.104; (50 µM) -0.189.

For the target “SASS6_Q6UVJ0_310_ENSTLDVECHEK (UniProt Q6UVJ0)”, the “probe-labelled cysteine peptide fold change” value runs as follows: (10 µM) 0.07; (50 µM) 0.16.

As to “SEC61A1_P61619_13_FLEVIKPFCVILPEIQKPERK (UniProt P61619)”, the “probe-labelled cysteine peptide fold change” value is -0.291 (10 µM) and -0.191 (50 µM).

Turning to “SEC24D_O94855_1022_GLYGGSSYVDFLCCVHK (UniProt O94855)”, the “probe-labelled cysteine peptide fold change” value (10 µM) was determined as 0.0643 and the “probe-labelled cysteine peptide fold change” value (50 µM) amounted to 0.0939.

With “SCMH1_Q96GD3_76_NTTSTCIATVVGLTGAR (UniProt Q96GD3)”, the “probe-labelled cysteine peptide fold change” value reads like this: (10 µM) -0.00851; (50 µM) 0.00583.

On to “SEC23A_Q15436_88_LWACNFCYQR (UniProt Q15436)”, for which the “probe-labelled cysteine peptide fold change” value is, setting by setting: (10 µM) 0.0643; (50 µM) 0.249.

Regarding “SEMA4A_Q9H3S1_339_SSAVCAFSLLDIER (UniProt Q9H3S1)”, the “probe-labelled cysteine peptide fold change” value was -0.0131 (10 µM) and -0.0829 (50 µM).

Consider “SCAF11_Q99590_553_TDVCTVHLPNDFPTCLTSESK (UniProt Q99590)”, for which the “probe-labelled cysteine peptide fold change” value is, setting by setting: (10 µM) 0.0519; (50 µM) -0.221.

On to “SDF2L1_Q9HCN8_149_CSGQHWER (UniProt Q9HCN8)”, for which the “probe-labelled cysteine peptide fold change” value reads like this: (10 µM) 0.0167; (50 µM) -0.155.

On to “SCLY_Q96I15_22_DAPAPAASQPSGCGK (UniProt Q96I15)”, for which the “probe-labelled cysteine peptide fold change” value (10 µM) was -0.0532 and the “probe-labelled cysteine peptide fold change” value (50 µM) was -0.13.

With “SEPHS1_P49903_306_ACGNMFGLMHGTCPETSGGLLICLPR (UniProt P49903)”, the “probe-labelled cysteine peptide fold change” value reads like this: (10 µM) -0.137; (50 µM) -0.526.

Consider “SEC23B_Q15437_425_IAGAIGPCVSLNVK (UniProt Q15437)”, for which the “probe-labelled cysteine peptide fold change” value runs as follows: (10 µM) 0.00238; (50 µM) 0.0675.

On to “SCAF4_O95104_420_PHQQEMEVEQPCIQEVK (UniProt O95104)”, for which the “probe-labelled cysteine peptide fold change” value is, setting by setting: (10 µM) 0.063; (50 µM) -0.211.

Take “SEC24D_O94855_848_VLPVYMNCLLK (UniProt O94855)”: the “probe-labelled cysteine peptide fold change” value by setting is: (10 µM) -0.0545; (50 µM) 0.0972.

For “SDF2L1_Q9HCN8_92_IRGGSEGGCPR (UniProt Q9HCN8)”, the “probe-labelled cysteine peptide fold change” value by setting is: (10 µM) -0.268; (50 µM) -0.108.

Regarding “SBNO1_A3KN83_425_QLLHWCGDDFDGVIVFDECHK (UniProt A3KN83)”, the “probe-labelled cysteine peptide fold change” value reads like this: (10 µM) 0.0519; (50 µM) 0.0346.

Consider “SCCPDH_Q8NBX0_77_LGRPTLSSEVGIIICDIANPASLDEMAK (UniProt Q8NBX0)”, for which the “probe-labelled cysteine peptide fold change” value (10 µM) is -0.0992 and the “probe-labelled cysteine peptide fold change” value (50 µM) worked out at 0.079.

On to “SCYL1_Q96KG9_88_CLHVVTEAVTPLGIYLK (UniProt Q96KG9)”, for which the “probe-labelled cysteine peptide fold change” value amounted to 0.108 (10 µM) and 0.0942 (50 µM).

With “SAMHD1_Q9Y3Z3_522_NPIDHVSFYCK (UniProt Q9Y3Z3)”, the “probe-labelled cysteine peptide fold change” value reads like this: (10 µM) -0.0047; (50 µM) -0.141.

Regarding “SDHA_P31040_475_ACALSIEESCRPGDKVPPIKPNAGEESVMNLDK (UniProt P31040)”, the “probe-labelled cysteine peptide fold change” value is, setting by setting: (10 µM) -0.0987; (50 µM) -0.0334.

Regarding “SCLY_Q96I15_388_VLMASVGAACHSDHGDQPSPVLLSYGVPFDVAR (UniProt Q96I15)”, the “probe-labelled cysteine peptide fold change” value reads like this: (10 µM) 0.147; (50 µM) -0.232.

As for “SCFD2_Q8WU76_218_CLVSGLSSLCEHLGVR (UniProt Q8WU76)”, the “probe-labelled cysteine peptide fold change” value runs as follows: (10 µM) 0.0794; (50 µM) -0.0371.

For “SEC24D_O94855_431_LDHYEKPELSLGSYEYVATLDYCR (UniProt O94855)”, the “probe-labelled cysteine peptide fold change” value was 0.264 (10 µM) and 0.154 (50 µM).

As for “SAMM50_Q9Y512_457_ICDGVQFGAGIR (UniProt Q9Y512)”, the “probe-labelled cysteine peptide fold change” value reads like this: (10 µM) 0.0158; (50 µM) 0.0232.

With “SEC24D_O94855_431_RLDHYEKPELSLGSYEYVATLDYCR (UniProt O94855)”, the “probe-labelled cysteine peptide fold change” value (10 µM) was 0.0353 and the “probe-labelled cysteine peptide fold change” value (50 µM) was determined as 0.11.

Consider “SEC23B_Q15437_352_TAANGHCIDIYACALDQTGLLEMK (UniProt Q15437)”, for which the “probe-labelled cysteine peptide fold change” value runs as follows: (10 µM) -0.0764; (50 µM) -0.0575.

For the target “SDHA_P31040_536_VGSVLQEGCGK (UniProt P31040)”, the “probe-labelled cysteine peptide fold change” value is, setting by setting: (10 µM) 0.0561; (50 µM) -0.0167.

Take “SEC13_P55735_77_GHEGPVWQVAWAHPMYGNILASCSYDRK (UniProt P55735)”: the “probe-labelled cysteine peptide fold change” value runs as follows: (10 µM) -0.0183; (50 µM) 0.0241.

As for “SCRIB_Q14160_496_RSEACPCQPDSGSPLPAEEEK (UniProt Q14160)”, the “probe-labelled cysteine peptide fold change” value is -0.103 (10 µM) and -0.349 (50 µM).

As to “SEC13_P55735_153_KINNAHTIGCNAVSWAPAVVPGSLIDHPSGQK (UniProt P55735)”, the “probe-labelled cysteine peptide fold change” value by setting is: (10 µM) 0.32; (50 µM) -0.0965.

Take “SEL1L3_Q68CR1_475_QEACHLHNSYLDLQR (UniProt Q68CR1)”: the “probe-labelled cysteine peptide fold change” value reads like this: (10 µM) -0.0373; (50 µM) -0.0246.

Turning to “SEC13_P55735_153_INNAHTIGCNAVSWAPAVVPGSLIDHPSGQK (UniProt P55735)”, the “probe-labelled cysteine peptide fold change” value reads like this: (10 µM) 0.356; (50 µM) 0.08.

For “SEC31A_O94979_216_MHCSGLAWHPDVATQMVLASEDDRLPVIQMWDLR (UniProt O94979)”, the “probe-labelled cysteine peptide fold change” value was 0.0315 (10 µM) and -0.134 (50 µM).

As to “SEC24C_P53992_452_FQCCFCSCINDVPPQYFQHLDHTGK (UniProt P53992)”, the “probe-labelled cysteine peptide fold change” value runs as follows: (10 µM) -0.0454; (50 µM) -0.381.
